Assay results reported in the supplement of paper PMC12819154, “High-throughput peptide-centric local stability assay extends protein–ligand identification to membrane proteins, tissues and bacteria” (Nature Structural & Molecular Biology, 2025).
The other results are listed elsewhere or left out. Small differences around the control level are noise.

Amino acid sequences for entries named in this document (tags omitted). A change or cut given only in a name is not applied to a line headed by its entry.
UniProt Q9D3E6: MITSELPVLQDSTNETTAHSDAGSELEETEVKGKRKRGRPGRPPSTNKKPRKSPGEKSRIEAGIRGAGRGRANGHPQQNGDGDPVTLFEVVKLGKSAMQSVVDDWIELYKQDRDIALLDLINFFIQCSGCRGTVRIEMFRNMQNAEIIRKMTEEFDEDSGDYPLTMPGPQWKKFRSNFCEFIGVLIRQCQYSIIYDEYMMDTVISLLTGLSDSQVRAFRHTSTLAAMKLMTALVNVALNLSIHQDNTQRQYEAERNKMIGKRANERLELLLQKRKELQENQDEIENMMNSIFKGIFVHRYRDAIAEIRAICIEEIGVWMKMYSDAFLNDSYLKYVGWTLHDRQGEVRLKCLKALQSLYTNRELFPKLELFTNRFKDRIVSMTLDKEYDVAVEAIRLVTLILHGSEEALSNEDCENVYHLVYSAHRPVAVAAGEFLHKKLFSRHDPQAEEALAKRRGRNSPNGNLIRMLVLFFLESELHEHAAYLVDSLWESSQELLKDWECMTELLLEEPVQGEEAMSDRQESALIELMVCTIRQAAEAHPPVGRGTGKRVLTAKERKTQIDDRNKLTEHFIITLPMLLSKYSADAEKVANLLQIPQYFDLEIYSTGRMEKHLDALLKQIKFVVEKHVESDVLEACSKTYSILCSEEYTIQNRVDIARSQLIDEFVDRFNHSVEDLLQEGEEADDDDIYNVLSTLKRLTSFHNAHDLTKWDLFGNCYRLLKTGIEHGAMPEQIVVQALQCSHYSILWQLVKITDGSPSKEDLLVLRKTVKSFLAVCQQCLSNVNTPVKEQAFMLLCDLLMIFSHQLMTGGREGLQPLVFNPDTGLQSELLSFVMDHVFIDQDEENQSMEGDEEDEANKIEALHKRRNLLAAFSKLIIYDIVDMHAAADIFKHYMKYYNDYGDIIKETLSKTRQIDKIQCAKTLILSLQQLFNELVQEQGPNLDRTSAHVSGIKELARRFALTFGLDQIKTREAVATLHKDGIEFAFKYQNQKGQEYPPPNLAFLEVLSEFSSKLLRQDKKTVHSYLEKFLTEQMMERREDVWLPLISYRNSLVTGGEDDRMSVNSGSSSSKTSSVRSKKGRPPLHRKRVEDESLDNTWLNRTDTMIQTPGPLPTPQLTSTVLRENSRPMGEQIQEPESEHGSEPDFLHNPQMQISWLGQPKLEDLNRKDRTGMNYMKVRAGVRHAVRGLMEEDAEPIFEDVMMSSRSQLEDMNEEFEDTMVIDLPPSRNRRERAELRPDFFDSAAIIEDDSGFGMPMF
UniProt Q9DA97: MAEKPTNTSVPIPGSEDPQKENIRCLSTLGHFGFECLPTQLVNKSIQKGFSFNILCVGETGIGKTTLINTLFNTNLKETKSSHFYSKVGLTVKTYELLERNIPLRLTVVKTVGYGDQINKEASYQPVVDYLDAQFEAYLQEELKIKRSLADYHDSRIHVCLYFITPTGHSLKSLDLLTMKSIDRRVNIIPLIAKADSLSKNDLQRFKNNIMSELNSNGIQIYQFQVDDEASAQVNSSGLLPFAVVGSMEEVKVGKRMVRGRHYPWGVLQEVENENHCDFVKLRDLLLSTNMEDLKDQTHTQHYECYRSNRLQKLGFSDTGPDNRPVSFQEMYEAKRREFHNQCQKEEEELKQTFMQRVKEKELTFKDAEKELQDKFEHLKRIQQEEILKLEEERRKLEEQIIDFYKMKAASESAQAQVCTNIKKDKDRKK
UniProt Q9D882: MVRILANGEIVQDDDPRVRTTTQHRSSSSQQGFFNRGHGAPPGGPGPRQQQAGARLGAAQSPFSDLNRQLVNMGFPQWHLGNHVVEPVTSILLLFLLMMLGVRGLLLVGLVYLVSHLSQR
UniProt Q9D8X5, whole entry: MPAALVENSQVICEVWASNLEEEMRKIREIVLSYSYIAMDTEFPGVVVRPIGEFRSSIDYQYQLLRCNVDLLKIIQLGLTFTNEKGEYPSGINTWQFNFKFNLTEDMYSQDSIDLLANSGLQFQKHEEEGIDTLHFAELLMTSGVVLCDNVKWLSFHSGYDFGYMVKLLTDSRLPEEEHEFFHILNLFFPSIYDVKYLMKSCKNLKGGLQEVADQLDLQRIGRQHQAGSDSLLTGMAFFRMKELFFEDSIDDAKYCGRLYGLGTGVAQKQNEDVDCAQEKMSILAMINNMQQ
UniProt Q9D4H9: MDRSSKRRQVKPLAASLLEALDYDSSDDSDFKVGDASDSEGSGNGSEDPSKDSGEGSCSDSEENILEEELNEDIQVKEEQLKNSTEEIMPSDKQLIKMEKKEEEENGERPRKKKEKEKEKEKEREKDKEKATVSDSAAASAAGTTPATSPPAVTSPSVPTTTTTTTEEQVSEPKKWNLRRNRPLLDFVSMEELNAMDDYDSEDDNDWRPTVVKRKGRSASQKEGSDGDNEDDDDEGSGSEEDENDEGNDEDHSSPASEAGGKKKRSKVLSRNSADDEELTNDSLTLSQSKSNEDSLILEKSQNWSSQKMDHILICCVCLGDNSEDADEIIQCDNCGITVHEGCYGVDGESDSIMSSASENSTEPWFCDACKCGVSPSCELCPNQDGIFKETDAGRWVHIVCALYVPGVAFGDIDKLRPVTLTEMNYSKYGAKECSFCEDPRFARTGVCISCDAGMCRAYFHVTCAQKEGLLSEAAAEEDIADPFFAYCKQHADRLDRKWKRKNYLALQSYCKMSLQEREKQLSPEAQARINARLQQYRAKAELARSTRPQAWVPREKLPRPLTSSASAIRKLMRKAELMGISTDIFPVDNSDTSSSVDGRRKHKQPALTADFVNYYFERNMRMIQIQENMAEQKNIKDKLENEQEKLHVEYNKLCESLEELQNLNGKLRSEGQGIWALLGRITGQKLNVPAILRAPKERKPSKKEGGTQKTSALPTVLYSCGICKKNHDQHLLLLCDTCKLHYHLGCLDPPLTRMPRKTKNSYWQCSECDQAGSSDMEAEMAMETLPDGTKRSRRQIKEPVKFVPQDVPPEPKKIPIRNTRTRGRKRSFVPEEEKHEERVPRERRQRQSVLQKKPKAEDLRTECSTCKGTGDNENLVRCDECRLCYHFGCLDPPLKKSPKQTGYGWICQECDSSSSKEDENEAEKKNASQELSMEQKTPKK
UniProt Q9D8B3: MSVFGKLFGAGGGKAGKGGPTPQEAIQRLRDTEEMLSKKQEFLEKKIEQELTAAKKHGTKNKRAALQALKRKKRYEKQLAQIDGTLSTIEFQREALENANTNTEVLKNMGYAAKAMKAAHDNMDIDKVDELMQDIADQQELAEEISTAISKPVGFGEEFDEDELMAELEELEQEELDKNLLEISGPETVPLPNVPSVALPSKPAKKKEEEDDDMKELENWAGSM
UniProt Q9D772: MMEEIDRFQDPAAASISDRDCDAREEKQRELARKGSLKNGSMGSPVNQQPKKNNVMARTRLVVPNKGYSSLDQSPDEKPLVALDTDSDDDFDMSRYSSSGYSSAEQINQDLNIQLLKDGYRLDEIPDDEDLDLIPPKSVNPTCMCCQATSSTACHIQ
UniProt Q9D6Z1: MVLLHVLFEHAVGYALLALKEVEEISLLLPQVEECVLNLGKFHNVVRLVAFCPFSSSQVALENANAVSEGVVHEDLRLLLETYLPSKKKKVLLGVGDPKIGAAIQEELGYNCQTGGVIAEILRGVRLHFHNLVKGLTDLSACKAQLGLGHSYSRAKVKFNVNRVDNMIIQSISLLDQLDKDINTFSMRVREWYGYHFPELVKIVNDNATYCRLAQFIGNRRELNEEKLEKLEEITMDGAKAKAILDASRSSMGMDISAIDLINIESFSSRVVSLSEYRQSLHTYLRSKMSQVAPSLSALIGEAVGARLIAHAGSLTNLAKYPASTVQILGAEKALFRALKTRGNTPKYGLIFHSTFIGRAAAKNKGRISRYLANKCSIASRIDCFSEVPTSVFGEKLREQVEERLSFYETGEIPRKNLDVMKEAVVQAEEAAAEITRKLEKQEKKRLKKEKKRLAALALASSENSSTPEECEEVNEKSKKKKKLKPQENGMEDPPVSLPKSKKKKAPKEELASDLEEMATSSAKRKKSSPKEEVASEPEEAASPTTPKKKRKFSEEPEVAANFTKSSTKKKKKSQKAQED
UniProt Q9D8N1: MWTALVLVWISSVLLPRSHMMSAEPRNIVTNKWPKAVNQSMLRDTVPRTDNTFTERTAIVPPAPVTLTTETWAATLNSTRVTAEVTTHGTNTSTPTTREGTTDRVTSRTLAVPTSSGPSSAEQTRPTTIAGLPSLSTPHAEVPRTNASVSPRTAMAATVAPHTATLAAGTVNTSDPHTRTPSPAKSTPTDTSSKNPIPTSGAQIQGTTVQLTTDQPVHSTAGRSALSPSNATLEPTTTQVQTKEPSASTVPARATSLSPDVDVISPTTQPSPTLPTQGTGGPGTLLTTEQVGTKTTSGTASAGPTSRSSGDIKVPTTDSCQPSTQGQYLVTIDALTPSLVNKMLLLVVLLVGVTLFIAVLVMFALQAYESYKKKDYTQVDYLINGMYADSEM
UniProt Q9D8T2: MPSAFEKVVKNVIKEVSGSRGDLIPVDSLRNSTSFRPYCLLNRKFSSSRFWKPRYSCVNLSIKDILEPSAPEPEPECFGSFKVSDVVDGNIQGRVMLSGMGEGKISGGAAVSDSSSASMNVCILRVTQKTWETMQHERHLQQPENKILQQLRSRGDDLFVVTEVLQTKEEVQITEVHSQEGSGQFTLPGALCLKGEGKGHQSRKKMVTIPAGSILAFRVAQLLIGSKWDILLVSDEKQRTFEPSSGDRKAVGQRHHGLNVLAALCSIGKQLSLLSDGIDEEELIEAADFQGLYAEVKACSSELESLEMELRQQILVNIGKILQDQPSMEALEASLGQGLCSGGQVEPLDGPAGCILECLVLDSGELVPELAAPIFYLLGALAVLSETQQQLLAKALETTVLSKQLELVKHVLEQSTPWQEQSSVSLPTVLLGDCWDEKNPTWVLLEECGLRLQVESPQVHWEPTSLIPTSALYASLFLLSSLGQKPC
UniProt Q9D6S7: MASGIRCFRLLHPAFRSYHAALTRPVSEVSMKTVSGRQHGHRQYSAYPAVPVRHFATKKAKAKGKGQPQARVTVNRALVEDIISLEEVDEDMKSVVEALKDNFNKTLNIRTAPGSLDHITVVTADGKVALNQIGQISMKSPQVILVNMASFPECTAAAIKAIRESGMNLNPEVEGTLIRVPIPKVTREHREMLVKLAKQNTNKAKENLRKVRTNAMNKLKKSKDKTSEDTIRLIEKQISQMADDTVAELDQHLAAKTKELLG
UniProt Q9D8S3: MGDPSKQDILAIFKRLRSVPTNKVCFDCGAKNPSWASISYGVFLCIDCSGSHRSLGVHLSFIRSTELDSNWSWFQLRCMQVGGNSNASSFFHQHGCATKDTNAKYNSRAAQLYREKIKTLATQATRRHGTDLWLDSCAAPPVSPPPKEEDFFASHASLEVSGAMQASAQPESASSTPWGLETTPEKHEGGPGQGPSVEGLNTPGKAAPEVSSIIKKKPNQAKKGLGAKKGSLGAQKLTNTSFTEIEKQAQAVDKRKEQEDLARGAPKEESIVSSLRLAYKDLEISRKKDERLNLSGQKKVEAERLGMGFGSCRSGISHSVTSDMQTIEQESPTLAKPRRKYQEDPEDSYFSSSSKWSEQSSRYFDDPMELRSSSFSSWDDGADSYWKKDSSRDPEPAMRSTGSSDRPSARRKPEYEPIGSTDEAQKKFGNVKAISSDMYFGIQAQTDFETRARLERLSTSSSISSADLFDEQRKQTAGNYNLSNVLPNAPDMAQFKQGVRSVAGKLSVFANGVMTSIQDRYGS
UniProt Q9D7X3: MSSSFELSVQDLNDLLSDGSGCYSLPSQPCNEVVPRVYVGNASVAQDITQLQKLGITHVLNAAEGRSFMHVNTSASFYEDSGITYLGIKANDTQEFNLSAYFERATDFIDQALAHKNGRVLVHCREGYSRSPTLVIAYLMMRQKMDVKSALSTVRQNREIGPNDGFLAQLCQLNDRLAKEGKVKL
UniProt Q9D4F8, whole entry: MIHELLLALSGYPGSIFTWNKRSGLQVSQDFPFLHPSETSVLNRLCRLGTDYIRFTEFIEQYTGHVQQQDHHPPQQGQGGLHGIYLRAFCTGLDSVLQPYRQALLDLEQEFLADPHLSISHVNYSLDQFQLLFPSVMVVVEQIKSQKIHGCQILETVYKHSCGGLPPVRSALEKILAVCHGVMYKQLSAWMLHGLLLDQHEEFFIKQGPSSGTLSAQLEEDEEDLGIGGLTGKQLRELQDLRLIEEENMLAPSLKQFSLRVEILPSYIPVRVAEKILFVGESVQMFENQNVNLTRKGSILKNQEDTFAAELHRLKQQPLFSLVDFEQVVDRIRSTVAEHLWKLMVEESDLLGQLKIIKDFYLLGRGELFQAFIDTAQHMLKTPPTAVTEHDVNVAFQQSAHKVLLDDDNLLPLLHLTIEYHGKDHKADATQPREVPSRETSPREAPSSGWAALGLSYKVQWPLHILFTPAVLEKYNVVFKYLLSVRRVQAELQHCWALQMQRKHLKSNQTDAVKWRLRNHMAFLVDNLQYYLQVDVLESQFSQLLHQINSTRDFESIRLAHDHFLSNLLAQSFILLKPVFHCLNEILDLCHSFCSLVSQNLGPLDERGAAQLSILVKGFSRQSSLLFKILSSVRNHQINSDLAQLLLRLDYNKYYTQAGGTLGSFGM

Compound: CN[C@@H]1C[C@H]2O[C@@](C)([C@@H]1OC)n1c3ccccc3c3c4c(c5c6ccccc6n2c5c31)C(=O)NC4 [staurosporine]
Assay: log2 fold change of tryptic peptide abundance, ligand vs vehicle (limited proteolysis) (log2 ratio); higher = more trypsin-susceptible (destabilized)
Conditions: ligand concentration: 20 uM; sample: mouse liver crude lysate; replicate design: treated separately

Target | log2 fold change
UniProt Q9D2X5 (peptide sequence: THLQLGSVLYHHTK, peptide start residue: 73) | -0.256
UniProt Q9D853 (peptide sequence: SGNTVAALVFQKRGTSLDK, peptide start residue: 224) | 0.186
UniProt Q9D3E6 (peptide sequence: FLTEQMMERR, peptide start residue: 1029) | 0.336
UniProt Q9DA97 (peptide sequence: DAEKELQDK, peptide start residue: 367) | 0.213
UniProt Q9D882 (peptide sequence: GHGAPPGGPGPR, peptide start residue: 37) | -0.0691
UniProt Q9D8X5 (peptide sequence: MKELFFEDSIDDAK, peptide start residue: 241) | -0.443
UniProt Q9D880 (peptide sequence: YMEGHHVK, peptide start residue: 225) | -0.246
UniProt Q9D4H9 (peptide sequence: NSTEEIMPSDK, peptide start residue: 83) | -0.151
UniProt Q9D8B3 (peptide sequence: IEQELTAAKK, peptide start residue: 47) | -0.204
UniProt Q9D720 (peptide sequence: LQNHCYQVHDR, peptide start residue: 36) | 0.487
UniProt Q9D8C6 (peptide sequence: LKISDVAR, peptide start residue: 102) | -0.0364
UniProt Q9D772 (peptide sequence: NGSMGSPVNQQPK, peptide start residue: 39) | -0.106
UniProt Q9D6Z1 (peptide sequence: RKFSEEPEVAANFTK, peptide start residue: 551) | -0.38
UniProt Q9D187 (peptide sequence: MDVHITPGTHASEHAVNK, peptide start residue: 117) | -0.32
UniProt Q9D2H6 (peptide sequence: MACTCPNCKDGEKR, peptide start residue: 502) | -0.214
UniProt Q9D8N1 (peptide sequence: VTAEVTTHGTNTSTPTTR, peptide start residue: 81) | -0.119
UniProt Q9D711 (peptide sequence: IEPHHTAVLGEGDAVQLENKDPK, peptide start residue: 212) | -0.259
UniProt Q9D8T2 (peptide sequence: QQILVNIGK, peptide start residue: 312) | -0.216

Target | log2 fold change
UniProt Q9D958 (peptide sequence: WLPVQDLGTEDKK, peptide start residue: 136) | 0.065
UniProt Q9DAM7 (peptide sequence: DHPQQQPGMLSR, peptide start residue: 25) | 0.538
UniProt Q9D6S7 (peptide sequence: VALNQIGQISMK, peptide start residue: 128) | 0.114
UniProt Q9D1P0 (peptide sequence: VWTPPDDFRM, peptide start residue: 169) | 0.286
UniProt Q9D1G1 (peptide sequence: RMGPGAASGGERPNLK, peptide start residue: 172) | 0.859
UniProt Q9D1G5 (peptide sequence: AHVETAQK, peptide start residue: 8) | 0.517
UniProt Q9D8S3 (peptide sequence: STGSSDRPSAR, peptide start residue: 400) | -0.678
UniProt Q9D384 (peptide sequence: HWDPRPR, peptide start residue: 193) | -0.112
UniProt Q9D136 (peptide sequence: IPEGSSAAER, peptide start residue: 11) | 0.114
UniProt Q9D4C5 (peptide sequence: DNPSPEPQLDDIKR, peptide start residue: 162) | -0.234
UniProt Q9D7X3 (peptide sequence: ATDFIDQALAHKNGR, peptide start residue: 105) | -0.0501
UniProt Q9D4F8 (peptide sequence: VEILPSYIPVR, peptide start residue: 261) | -0.26
UniProt Q9D6X6 (peptide sequence: AKLEVSSSCGPQCHK, peptide start residue: 56) | 0.00845
UniProt Q9D8C8 (peptide sequence: TRCALEETVAEGLNVPR, peptide start residue: 147) | -0.873
UniProt Q9D8U7 (peptide sequence: RTTDEEGWDLHESTR, peptide start residue: 180) | 0.44
UniProt Q9D2U5 (peptide sequence: QQLEALLNK, peptide start residue: 43) | -0.192
UniProt Q9D665 (peptide sequence: FVCGDIR, peptide start residue: 53) | 0.358
UniProt Q9D4D4 (peptide sequence: PTALIAKTFKGR, peptide start residue: 240) | 0.06

Two entries drawn at random from the list so far, as already listed:
Target | log2 fold change
UniProt Q9D8C8 (peptide sequence: TRCALEETVAEGLNVPR, peptide start residue: 147) | -0.873
UniProt Q9D1G1 (peptide sequence: RMGPGAASGGERPNLK, peptide start residue: 172) | 0.859
